The results in this text go back to article PMC3522681.

In assay [1] the target is delta opioid receptor (DOR), expressed in N2A cells (N2A-DOR) (UniProt P32300). Description: ELISA; membranes of N2A or HEK293 cells expressing receptor combinations, probed with the CB1R-DOR heteromer-selective mouse monoclonal antibody (1:10 hybridoma supernatant, HRP anti-mouse IgG); both receptors together in the same membranes. (In general: In an ELISA, binding on a coated surface is turned into a signal by an enzyme label.)

Assay [2] addresses delta opioid receptor (DOR), mouse cortex (mouse (endogenous in mouse cortex)) (UniProt P32300). Description: ELISA; brain membranes (5 ug/well) coated on 96-well plates, fixed with 4% PFA, blocked with 1% BSA, CB1R-DOR heteromer-selective mAb 1:100 overnight at 4 C, HRP secondary, read at 490 nm; wild type, CB1R -/- and DOR -/- mice; sham and L5SNT lesioned rats 14 days after surgery.

These are yes or no findings as the source states them, for the method shown. Some binding calls cover weakened binding; strength is not graded here.

With “cannabinoid type 1 receptor (CB1R), endogenous in N2A cells and in mouse cortex (from UniProt P47746 1-473)”, the binding entry in assay [1] and in assay [2] was “binds” throughout.
